Experimental data as given in article doi:10.1101/2024.05.31.596839.
Results are given in words; binding and its absence hold for the method and conditions named. Some binding calls cover weakened binding; strength is not graded here.

Columns and labels:
Test in all cases: ReLo
[1] = molecular target: T1, Papi (Drosophila) (UniProt Q9VQ91)
T1 sequence: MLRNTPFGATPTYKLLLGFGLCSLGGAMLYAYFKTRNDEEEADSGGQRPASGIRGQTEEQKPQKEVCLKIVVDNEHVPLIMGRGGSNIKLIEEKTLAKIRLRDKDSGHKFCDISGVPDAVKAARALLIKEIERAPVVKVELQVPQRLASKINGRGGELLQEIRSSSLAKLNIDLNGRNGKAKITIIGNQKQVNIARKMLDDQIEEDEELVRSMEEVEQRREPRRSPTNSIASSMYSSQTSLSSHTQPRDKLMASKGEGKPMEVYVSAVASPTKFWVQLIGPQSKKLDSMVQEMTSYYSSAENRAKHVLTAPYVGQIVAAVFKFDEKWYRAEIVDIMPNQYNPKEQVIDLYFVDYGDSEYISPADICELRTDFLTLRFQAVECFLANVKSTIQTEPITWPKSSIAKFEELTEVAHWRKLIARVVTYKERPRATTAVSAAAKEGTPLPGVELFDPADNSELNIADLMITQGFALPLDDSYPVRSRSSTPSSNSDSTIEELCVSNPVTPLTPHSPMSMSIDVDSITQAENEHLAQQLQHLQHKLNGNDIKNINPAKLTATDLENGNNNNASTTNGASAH

[2] = molecular target: T2, Krimper (Drosophila) (UniProt A1ZAC4)
T2 sequence: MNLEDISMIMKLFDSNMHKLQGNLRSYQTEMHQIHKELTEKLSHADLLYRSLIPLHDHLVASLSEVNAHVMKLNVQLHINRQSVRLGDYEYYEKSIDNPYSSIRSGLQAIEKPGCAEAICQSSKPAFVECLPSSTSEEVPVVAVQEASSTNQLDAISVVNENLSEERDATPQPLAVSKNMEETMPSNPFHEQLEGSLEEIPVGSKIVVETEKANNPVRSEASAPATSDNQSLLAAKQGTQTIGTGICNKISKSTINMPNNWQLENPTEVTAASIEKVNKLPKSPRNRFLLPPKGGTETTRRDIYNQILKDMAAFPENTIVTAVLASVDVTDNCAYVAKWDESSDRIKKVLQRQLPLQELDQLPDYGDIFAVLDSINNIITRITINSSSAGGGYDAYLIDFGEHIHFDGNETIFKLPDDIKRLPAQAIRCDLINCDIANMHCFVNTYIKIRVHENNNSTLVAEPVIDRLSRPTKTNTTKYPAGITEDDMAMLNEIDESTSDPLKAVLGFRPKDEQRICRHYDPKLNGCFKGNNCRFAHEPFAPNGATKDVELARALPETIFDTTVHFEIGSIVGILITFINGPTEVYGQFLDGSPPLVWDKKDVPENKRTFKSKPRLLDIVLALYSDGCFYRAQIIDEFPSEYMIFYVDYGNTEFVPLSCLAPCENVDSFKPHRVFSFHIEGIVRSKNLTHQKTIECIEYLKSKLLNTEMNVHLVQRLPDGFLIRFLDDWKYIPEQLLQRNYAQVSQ

[3] = molecular target: T3, BoYb NTD_MUT (Drosophila) (UniProt Q9VNP5)
T3 sequence: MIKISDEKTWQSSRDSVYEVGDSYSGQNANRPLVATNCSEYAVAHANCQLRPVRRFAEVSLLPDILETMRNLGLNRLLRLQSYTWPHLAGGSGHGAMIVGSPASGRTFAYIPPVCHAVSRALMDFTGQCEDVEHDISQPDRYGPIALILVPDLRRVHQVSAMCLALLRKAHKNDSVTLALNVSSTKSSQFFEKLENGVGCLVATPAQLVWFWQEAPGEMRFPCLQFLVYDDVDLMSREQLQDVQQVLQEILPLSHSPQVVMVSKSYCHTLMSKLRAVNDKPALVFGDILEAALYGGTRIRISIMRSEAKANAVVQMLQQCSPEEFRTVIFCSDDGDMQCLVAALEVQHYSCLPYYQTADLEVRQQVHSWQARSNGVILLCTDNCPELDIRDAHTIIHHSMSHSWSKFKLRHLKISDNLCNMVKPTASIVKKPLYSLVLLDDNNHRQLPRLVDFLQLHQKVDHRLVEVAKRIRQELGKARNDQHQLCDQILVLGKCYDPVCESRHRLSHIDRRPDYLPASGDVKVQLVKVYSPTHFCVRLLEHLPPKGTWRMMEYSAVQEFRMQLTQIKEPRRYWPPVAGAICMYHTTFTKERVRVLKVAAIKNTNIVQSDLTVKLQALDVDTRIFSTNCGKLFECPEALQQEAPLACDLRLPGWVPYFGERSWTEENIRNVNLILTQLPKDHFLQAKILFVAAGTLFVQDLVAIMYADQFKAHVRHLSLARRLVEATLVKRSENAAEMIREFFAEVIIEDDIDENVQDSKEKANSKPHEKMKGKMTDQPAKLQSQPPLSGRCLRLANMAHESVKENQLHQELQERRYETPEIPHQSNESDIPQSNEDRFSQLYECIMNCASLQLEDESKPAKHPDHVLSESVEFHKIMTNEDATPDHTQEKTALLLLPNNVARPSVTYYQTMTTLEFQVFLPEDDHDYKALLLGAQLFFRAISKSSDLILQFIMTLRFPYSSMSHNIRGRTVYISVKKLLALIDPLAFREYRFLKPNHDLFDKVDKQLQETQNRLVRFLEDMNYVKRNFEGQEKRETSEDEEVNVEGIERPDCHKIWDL

B1: Argonaute 3 (protein, UniProt Q7PLK0 1-867)
chain: MSGRGNLLSLFNKNAGNMGKSISSKDHEIDSGLDFNNSESSGERLLSSHNIETDLITTLQHVNISVGRGRARLIDTLKTDDHTSNQFITSESKENITKKTKGPESEAIASENGLFFPDLIYGSKGSSVNIYCNYLKLTTDESKGVFNYEVRFFPPIDSVHLRIKYLNDHKDKLGGTKTFDGNTLYLPILLPNKMTVFISKAEDVELQIRILYKKKEEMRNCTQLYNILFDRVMKVLNYVKFDRKQFDPSRPKIIPLAKLEVWPGYVTAVDEYKGGLMLCCDVSHRILCQKTVLEMLVDLYQQNVEHYQESARKMLVGNIVLTRYNNRTYKINDICFDQNPTCQFEIKTGCTSYVEYYKQYHNINIKDVNQPLIYSIKKSRGIPAERENLQFCLIPELCYLTGLRDEVRSDNKLMREIATFTRVSPNQRQMALNKFYENVSNTPAAQEILNSWGLSLTNNSNKISGRQMDIEQIYFSKISVSAGRSAEFSKHAVTNEMLKVVHLSKWIIIHLRNYRQAATSLLDNMKQACESLGMNISNPTMISLDHDRIDAYIQALRRNITMNTQMVVCICHNRRDDRYAAIKKICCSEIPIPSQVINAKTLQNDLKIRSVVQKIVLQMNCKLGGSLWTVKIPFKNVMICGIDSYHDPSNRGNSVAAFVASINSSYSQWYSKAVVQTKREEIVNGLSASFEIALKMYRKRNGKLPTNIIIYRDGIGDGQLYTCLNYEIPQFEMVCGNRIKISYIVVQKRINTRIFSGSGIHLENPLPGTVVDQHITKSNMYDFFLVSQLVRQGTVTPTHYVVLRDDCNYGPDIIQKLSYKLCFLYYNWAGTVRIPACCMYAHKLAYLIGQSIQRDVAEALSEKLFYL
Question: B1 was tested. Which binding [1] did it give?
Answer: Its binding is “no binding”.

Question: And the binding [2]?
Answer: The binding was “binds”.

B2: Piwi (protein, UniProt Q9VKM1 1-843)
chain: MADDQGRGRRRPLNEDDSSTSRGSGDGPRVKVFRGSSSGDPRADPRIEASRERRALEEAPRREGGPTERKPWGDQYDYLNTRPAELVSKKGTDGVPVMLQTNFFRLKTKPEWRIVHYHVEFEPSIENPRVRMGVLSNHANLLGSGYLFDGLQLFTTRKFEQEITVLSGKSKLDIEYKISIKFVGFISCAEPRFLQVLNLILRRSMKGLNLELVGRNLFDPRAKIEIREFKMELWPGYETSIRQHEKDILLGTEITHKVMRTETIYDIMRRCSHNPARHQDEVRVNVLDLIVLTDYNNRTYRINDVDFGQTPKSTFSCKGRDISFVEYYLTKYNIRIRDHNQPLLISKNRDKALKTNASELVVLIPELCRVTGLNAEMRSNFQLMRAMSSYTRMNPKQRTDRLRAFNHRLQNTPESVKVLRDWNMELDKNVTEVQGRIIGQQNIVFHNGKVPAGENADWQRHFRDQRMLTTPSDGLDRWAVIAPQRNSHELRTLLDSLYRAASGMGLRIRSPQEFIIYDDRTGTYVRAMDDCVRSDPKLILCLVPNDNAERYSSIKKRGYVDRAVPTQVVTLKTTKNRSLMSIATKIAIQLNCKLGYTPWMIELPLSGLMTIGFDIAKSTRDRKRAYGALIASMDLQQNSTYFSTVTECSAFDVLANTLWPMIAKALRQYQHEHRKLPSRIVFYRDGVSSGSLKQLFEFEVKDIIEKLKTEYARVQLSPPQLAYIVVTRSMNTRFFLNGQNPPPGTIVDDVITLPERYDFYLVSQQVRQGTVSPTSYNVLYSSMGLSPEKMQKLTYKMCHLYYNWSGTTRVPAVCQYAKKLATLVGTNLHSIPQNALEKKFYYL
Question: B2 was tested. Which binding [1] did it give?
Answer: The binding was “binds”.

B3: Vret-N (domain or fragment, UniProt Q9VCU7 1-178)
chain: MESESSQDDWSAFDPMSREYYDQVGNRYTNESGQKLIMEAPLPPKDEKEQRATRQAKYPYLVVPKSSPYVTEKMLINFFGRALIKEMEFRRLSRVYFVYFENIASLETAQQRVQRYPNLIKCITGRPQKEREITSDPVTSTEPMPTPGPAISATERTPVNHNREVPISTGGQNHPEFF
Question: How did the binding [3] turn out when B3 was run?
Answer: The binding was “no binding”.
